# Assay results published in the supplement of paper PMC8728848.
# The list shows a part of the results.
# B1: LlpA (Arthrobacter sp) (protein)
# chain: MGSSHHHHHHSSGLVPRGSHMTLHPETALRPGAAATSPNSRYRLLYQTDGNLVLYGPDGPLWDSGTNGHGAGACIMQADGNLVLYGPNDEYVWDTETDNNPGSRLVIQDDGNAVIYRPDGSPLWATETCQPPGSADSHVLQSGSTLTPTHGIRSANGLYGLLYQTDGNLVFYGPDGPLWDSGTNGRGAGACIMQPDGNLVLYGPHDEYVWDTETDNNPGSRLVIQDDGNAVIYRPDGNPTWVTGTH
# Key:
# Experiment in all cases: glycan array binding signal (z-score within array); higher = stronger binding
# Settings in all cases: glycan notation: IUPAC condensed, linker removed
# [1] = target: Neu5Ac(a2-3)Gal(b1-4)GlcNAc(b1-3)Gal(b1-4)GlcNAc(b1-2)Man(a1-3)[Neu5Ac(a2-3)Gal(b1-4)GlcNAc(b1-3)Gal(b1-4)GlcNAc(b1-2)Man(a1-6)]Man(b1-4)GlcNAc(b1-4)GlcNAc
# In short: (§1)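 From the Consortium for Functional Glycomics database, 3228 arrays were curated, keeping only those whose protein sequence was available. Binding is given as a within-array Z-score averaged across arrays sharing a protein sequence and across linkers. Negative Z-scores can be read as non-binding.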
# [2] = target: Neu5Ac(a2-3)Gal(b1-4)GlcNAc(b1-3)Gal(b1-4)GlcNAc(b1-3)Gal(b1-4)GlcNAc
# In short: as §1
# [3] = target: Neu5Ac(a2-3)Gal(b1-4)GlcNAc(b1-3)Gal(b1-4)GlcNAc(b1-3)Gal(b1-4)GlcNAc(b1-2)Man(a1-3)[Neu5Ac(a2-3)Gal(b1-4)GlcNAc(b1-3)Gal(b1-4)GlcNAc(b1-3)Gal(b1-4)GlcNAc(b1-2)Man(a1-6)]GalNAc
# In short: as §1
# [4] = target: Neu5Ac(a2-3)Gal(b1-4)GlcNAc(b1-3)Gal(b1-4)GlcNAc(b1-3)GalNAc
# In short: as §1
# [5] = target: Neu5Ac(a2-3)Gal(b1-4)GlcNAc(b1-3)Gal(b1-4)GlcNAc(b1-3)[Neu5Ac(a2-3)Gal(b1-4)GlcNAc(b1-3)Gal(b1-4)GlcNAc(b1-6)]GalNAc
# In short: as §1
# [6] = target: Neu5Ac(a2-3)Gal(b1-4)GlcNAc(b1-3)Gal(b1-4)GlcNAc(b1-6)[Gal(b1-3)]GalNAc
# In short: as §1
# [7] = target: Neu5Ac(a2-3)Gal(b1-4)GlcNAc(b1-3)Gal(b1-4)[Fuc(a1-3)]GlcNAc
# In short: as §1
# [8] = target: Neu5Ac(a2-3)Gal(b1-4)GlcNAc(b1-3)GalNAc
# In short: as §1
# [9] = target: Neu5Ac(a2-3)Gal(b1-4)GlcNAc(b1-3)[Neu5Ac(a2-3)Gal(b1-4)GlcNAc(b1-6)]GalNAc
# In short: as §1
# [10] = target: Neu5Ac(a2-3)Gal(b1-4)GlcNAc(b1-6)GalNAc
# In short: as §1
# [11] = target: Neu5Ac(a2-3)Gal(b1-4)GlcNAc(b1-6)[Gal(b1-3)]GalNAc
# In short: as §1
# [12] = target: Neu5Ac(a2-3)Gal(b1-4)GlcNAc(b1-6)[Neu5Ac(a2-3)Gal(b1-3)]GalNAc
# In short: as §1
# [13] = target: Neu5Ac(a2-3)Gal(b1-4)GlcNAc6S
# In short: as §1
# [14] = target: Neu5Ac(a2-3)Gal(b1-4)[Fuc(a1-3)]GlcNAc
# In short: as §1
# [15] = target: Neu5Ac(a2-3)Gal(b1-4)[Fuc(a1-3)]GlcNAc(b1-2)Man
# In short: as §1
# [16] = target: Neu5Ac(a2-3)Gal(b1-4)[Fuc(a1-3)]GlcNAc(b1-3)Gal
# In short: as §1
# [17] = target: Neu5Ac(a2-3)Gal(b1-4)[Fuc(a1-3)]GlcNAc(b1-3)Gal(b1-4)GlcNAc
# In short: as §1
# [18] = target: Neu5Ac(a2-3)Gal(b1-4)[Fuc(a1-3)]GlcNAc(b1-3)Gal(b1-4)[Fuc(a1-3)]GlcNAc(b1-3)Gal(b1-4)[Fuc(a1-3)]GlcNAc
# In short: as §1
# [19] = target: Neu5Ac(a2-3)Gal(b1-4)[Fuc(a1-3)]GlcNAc(b1-3)GalNAc
# In short: as §1
# [20] = target: Neu5Ac(a2-3)Gal(b1-4)[Fuc(a1-3)]GlcNAc(b1-6)[Gal(b1-3)]GalNAc
# In short: as §1
# [21] = target: Neu5Ac(a2-3)Gal(b1-4)[Fuc(a1-3)]GlcNAc(b1-6)[Neu5Ac(a2-3)Gal(b1-3)]GalNAc
# In short: as §1
# [22] = target: Neu5Ac(a2-3)Gal(b1-4)[Fuc(a1-3)]GlcNAc6S
# In short: as §1
# [23] = target: Neu5Ac(a2-3)Gal6S(b1-4)GlcNAc
# In short: as §1
# [24] = target: Neu5Ac(a2-3)Gal6S(b1-4)[Fuc(a1-3)]GlcNAc
# In short: as §1
# Neu5Ac(a2-3)GalNAc = target: Neu5Ac(a2-3)GalNAc
# In short: as §1
# [25] = target: Neu5Ac(a2-3)GalNAc(b1-4)GlcNAc
# In short: as §1
# [26] = target: Neu5Ac(a2-3)[GalNAc(b1-4)]Gal(b1-4)Glc
# In short: as §1
# [27] = target: Neu5Ac(a2-3)[GalNAc(b1-4)]Gal(b1-4)GlcNAc
# In short: as §1
# [28] = target: Neu5Ac(a2-3)[GalNAc(b1-4)]Gal(b1-4)GlcNAc(b1-3)GalNAc
# In short: as §1
# [29] = target: Neu5Ac(a2-3)[Neu5Ac(a2-6)]GalNAc
# In short: as §1
# Neu5Ac(a2-6)Gal = target: Neu5Ac(a2-6)Gal
# In short: as §1
# [30] = target: Neu5Ac(a2-6)Gal(b1-3)GlcNAc(b1-3)[Gal(b1-4)GlcNAc(b1-6)]Gal(b1-4)Glc
# In short: as §1
# Neu5Ac(a2-6)Gal(b1-4)Glc = target: Neu5Ac(a2-6)Gal(b1-4)Glc
# In short: as §1
# [31] = target: Neu5Ac(a2-6)Gal(b1-4)GlcNAc
# In short: as §1
# [32] = target: Neu5Ac(a2-6)Gal(b1-4)GlcNAc(b1-2)Man
# In short: as §1
# [33] = target: Neu5Ac(a2-6)Gal(b1-4)GlcNAc(b1-2)Man(a1-3)Man(b1-4)GlcNAc(b1-4)GlcNAc
# In short: as §1
# [34] = target: Neu5Ac(a2-6)Gal(b1-4)GlcNAc(b1-2)Man(a1-3)[Gal(b1-4)GlcNAc(b1-2)Man(a1-6)]Man(b1-4)GlcNAc(b1-4)GlcNAc
# In short: as §1
# [35] = target: Neu5Ac(a2-6)Gal(b1-4)GlcNAc(b1-2)Man(a1-3)[GlcNAc(b1-2)Man(a1-6)]Man(b1-4)GlcNAc(b1-4)GlcNAc
# In short: as §1
binder,measurement,setting,value
B1,glycan array binding signal (z-score),[1],-0.137
same,glycan array binding signal (z-score),[2],0.461
same,glycan array binding signal (z-score),[3],1.79
same,glycan array binding signal (z-score),[4],0.223
same,glycan array binding signal (z-score),[5],-0.062
same,glycan array binding signal (z-score),[6],-1.08
same,glycan array binding signal (z-score),[7],-0.49
same,glycan array binding signal (z-score),[8],0.071
same,glycan array binding signal (z-score),[9],0.868
same,glycan array binding signal (z-score),[10],-0.779
same,glycan array binding signal (z-score),[11],-0.102
same,glycan array binding signal (z-score),[12],-0.847
same,glycan array binding signal (z-score),[13],-0.156
same,glycan array binding signal (z-score),[14],-0.619
same,glycan array binding signal (z-score),[15],-0.343
same,glycan array binding signal (z-score),[16],-0.27
same,glycan array binding signal (z-score),[17],-0.166
same,glycan array binding signal (z-score),[18],-0.008
same,glycan array binding signal (z-score),[19],1.8
same,glycan array binding signal (z-score),[20],1.65
same,glycan array binding signal (z-score),[21],-0.534
same,glycan array binding signal (z-score),[22],0.447
same,glycan array binding signal (z-score),[23],-1.21
same,glycan array binding signal (z-score),[24],-0.518
same,glycan array binding signal (z-score),Neu5Ac(a2-3)GalNAc,0.659
same,glycan array binding signal (z-score),[25],-0.416
same,glycan array binding signal (z-score),[26],0.446
same,glycan array binding signal (z-score),[27],-0.707
same,glycan array binding signal (z-score),[28],0.75
same,glycan array binding signal (z-score),[29],-0.513
same,glycan array binding signal (z-score),Neu5Ac(a2-6)Gal,0.531
same,glycan array binding signal (z-score),[30],-0.829
same,glycan array binding signal (z-score),Neu5Ac(a2-6)Gal(b1-4)Glc,-0.132
same,glycan array binding signal (z-score),[31],-0.983
same,glycan array binding signal (z-score),[32],-0.123
same,glycan array binding signal (z-score),[33],0.796
same,glycan array binding signal (z-score),[34],-0.376
same,glycan array binding signal (z-score),[35],0.56
